Measured values from publication PMC9509566.
No constants are given. Whether binding was seen depends on the method and setting. In cells and extracts the contact can be indirect. Some results given as binding are weak or reduced against the parent protein; the word gives no strength.

Amino acid sequences for entries named in this document (tags omitted).
UniProt P06241: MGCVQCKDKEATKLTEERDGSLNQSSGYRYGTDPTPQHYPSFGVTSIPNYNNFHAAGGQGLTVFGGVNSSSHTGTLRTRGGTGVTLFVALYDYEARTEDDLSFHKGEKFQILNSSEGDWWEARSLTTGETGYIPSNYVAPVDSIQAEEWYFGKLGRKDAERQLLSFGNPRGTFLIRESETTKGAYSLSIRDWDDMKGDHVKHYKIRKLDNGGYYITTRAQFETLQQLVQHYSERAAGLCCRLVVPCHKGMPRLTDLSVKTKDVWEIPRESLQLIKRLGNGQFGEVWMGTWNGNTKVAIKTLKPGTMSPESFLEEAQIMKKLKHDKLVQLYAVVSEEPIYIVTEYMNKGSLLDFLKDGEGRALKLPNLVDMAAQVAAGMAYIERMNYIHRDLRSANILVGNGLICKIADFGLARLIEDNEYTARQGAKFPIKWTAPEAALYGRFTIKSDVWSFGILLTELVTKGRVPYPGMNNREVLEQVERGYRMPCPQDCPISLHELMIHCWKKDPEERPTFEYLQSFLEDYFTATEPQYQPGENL

Target: Fyn (human (endogenous in NK-92)) (UniProt P06241)
Assay: co-IP; endogenous proteins; lysates (IP lysis buffer with protease inhibitors) of NK-92 cells, uninfected, T. gondii infected, or infected and treated with anti-2B4 antibody; IP with 1 ug anti-2B4, anti-SHP-2 or anti-Fyn antibody at 4 C overnight, protein A/G-agarose beads, Western blot

binding: binds
B1: 2B4 (CD244) (receptor, UniProt Q9BZW8 22-370)
chain: CQGSADHVVSISGVPLQLQPNSIQTKVDSIAWKKLLPSQNGFHHILKWENGSLPSNTSNDRFSFIVKNLSLLIKAAQQQDSGLYCLEVTSISGKVQTATFQVFVFESLLPDKVEKPRLQGQGKILDRGRCQVALSCLVSRDGNVSYAWYRGSKLIQTAGNLTYLDEEVDINGTHTYTCNVSNPVSWESHTLNLTQDCQNAHQEFRFWPFLVIIVILSALFLGTLACFCVWRRKRKEKQSETSPKEFLTIYEDVKDLKTRRNHEQEQTFPGGGSTIYSMIQSQSSAPTSQEPAYTLYSLIQPSRKSGSRKRNHSPSFNSTIYEVIGKSQPKAQNPARLSRKELENFDVYS
